According to US20060270837A1 (published 2006):
No constants are given. Whether binding was seen depends on the method and setting. Binding can be weak; no strength is given.

B1: scFv T1014F08 (scFv)
scFv: EVQLVQSGAEVKKPGASVKLSCRVSGDTFTAYFIHWVRQAPGQGPEWMGWFNPISGTAGSAARFRGRVAMTRDTSISTAYMELNRLTFDDTAVYYCARQHRGNTFDPWGKGTLVTVSSGGGGSGGGGSGGGGSALPVLTQPPSASGSPGQSVTISCTGTSSDVGGYKYVSWYQQHPGKAPKLMIYEVSMRPSGVPDRFSGSKSGNTASLTVSGLQAEDEADYYCASYAGSNNWVFGGGTKLTVLG
B2: scFv T1014G03 (scFv)
scFv: EVQLVQSGAEVKMPGASVKLSCRVSGDTFTAYFIHWVRQAPGQGLEWMGWFNPISGTAGSAEKFRGRVAMTRDTSISTAYMELNRLTFDDTAVYYCARQHRGNTFDPWGQGTLVTVSSGGGGSGGGGSGGGGSAQSALTQPASVSGSPGQSITISCTGTSSDIGAYKYVSWYQQHPGKAPKLVIYEVSNRPSGVSSRFSGSKSGQTASLTISGLQADDEADYYCNSYQGYNTWVFGGGTKVTVLG
B3: scFv T1014A04 (scFv)
scFv: EVQLVQSGADVKRPGASVKVSCKISGDSFNAYFIHWVRQAPGQGLEWMGWFNPDSGTADSAQKFHGRVTMTRDTSSSTAFLELSRLRSDDTAVYYCVRQHRGNTFAPWGRGTMVTVSSGGGGSGGGGSGGGGSAQSVLTQPPSASGSPGQSVTISCTGTTSDVGGYNYVSWYQQHPGKAPKLMIYGVNQRPSGVPDRFSGSKSGNTASLTVSGLQAEDEADYYCSSYAGSNNWVFGGGTKLTVLG
B4: scFv T1014G04 (scFv)
scFv: EVQLVQSGADVKRPGASVKVSCKISGDSFTAYFIHWVRQAPGQGLEWMGWFNPDSGTADSAQKFHGRVTMTRDTSSSTAFLELSRLRSDDTAVYYCVRQHRGNTFAPWGRGTLVTVSSGGGGSGGGGSGGGGSAQPVLTQPPSASGSPGQSVTISCTGTSSDVGSYEYVSWYQQHPGKAPRLMISEVNKRPSGVPNRFSGSKSGNTASLTVSGLQADDEADYYCSSYAGSNNWVFGGGTKVTVLG
B5: scFv T1014B11 (scFv)
scFv: EVQLVQSGAEVKKPGASVKVSCKISGDSFTAYFIHWLRQAPGEGLEWMGWFNPISGTAGSPQKFHGRVAMTRDTSISTAYMELTRLASDDTAIYYCARQHHSNTFDPWGQGTLVTVSSGGGGSGGGGSGGGGSAQSALTQPASVSGSPGQSITISCTGTNSDVGGYNYVSWYQQHPGKAPKLMIYEVNNRPSGVSNRFSGSKSGNTASLTISGLQADDEADYYCSSYTTSNTWVFGGGTKLTVLG

Biological target: Soluble, purified TR4 fusion protein (human)
Test: specificity phage ELISA, antigen coated at 1 ug/ml, anti-M13-HRP detection

Binder | binding
B1 | binds
B2 | binds
B3 | binds
B4 | binds
B5 | binds
